# Test results as given in article PMC7064343.
# Chains of the proteins cited; added tags and fusions are not shown. Lines headed by an entry give the natural chain unless they say otherwise; changes in a name come on top.
# UniProt Q38D74: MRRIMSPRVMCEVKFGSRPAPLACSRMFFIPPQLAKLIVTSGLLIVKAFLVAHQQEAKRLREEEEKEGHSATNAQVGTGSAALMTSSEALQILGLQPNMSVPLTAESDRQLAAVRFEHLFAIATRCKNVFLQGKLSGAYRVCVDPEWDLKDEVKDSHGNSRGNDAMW
# UniProt Q57YN2: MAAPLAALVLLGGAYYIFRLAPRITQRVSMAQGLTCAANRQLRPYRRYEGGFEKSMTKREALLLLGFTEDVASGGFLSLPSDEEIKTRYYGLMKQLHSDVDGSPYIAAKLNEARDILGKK
# Results are given in words; binding and its absence hold for the method and conditions named. In cells and extracts the contact can be indirect. These calls come from enrichment with a bait or labelling near it, and not all partners need be listed.
# Molecular target: TbPam16-HA (C-terminally triple HA-tagged TbPam16) (Trypanosoma brucei) (UniProt Q38D74)
# Test: affinity purification with mass spectrometry; SILAC-IP. Digitonin-extracted mitochondria-enriched pellets of uninduced and induced cells expressing ACAD-myc, TbPam16-HA or TbPam18-HA were subjected to CoIP. Three biological replicates with a label-switch; quantitative LC-MS.
substance,measurement,value
TbPam18 (endogenous) (from UniProt Q57YN2),binding,binds
